# Measured values as given in PubChem BioAssay AID493014 (National Center for Advancing Translational Sciences (NCATS), 2011).
# This is one part of the list. Further columns of the screen follow, without active or inactive calls. The list favours compounds with an active or inconclusive main result. Potencies come from curve fits of mixed quality, noted in brackets.
# Experiment: qHTS Assay to Find Inhibitors of Chronic Active B-Cell Receptor Signaling
# Conditions: ABC-DLBCL IkBa-CBG/CBR reporter, luminescence ratio (green luciferase fused to IkBa over red control in TMD8 lymphoma cells), 4 h
# In short: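 TMD8 ABC-DLBCL cells carrying doxycycline-inducible green luciferase fused to IkappaBalpha plus unfused red luciferase were exposed to compounds (up to 46 uM) for 4 hrs at 37C. Activity came from the overlap-corrected green/red luminescence ratio.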
# [1] = measured here: CBR red luminescence, cell number
# [2] = measured here: IkBa-CBG green luminescence
Compound,AC50 [1],AC50 [2]
C=CCc1ccc(OCCCCNC(C)CC)c(OC)c1 (stereo not drawn),"1.03 µM [rising, full curve, poor fit]",–
COc1ccccc1N1CCN(C(=O)c2sc3ncnc(N4CCN(c5ccccn5)CC4)c3c2C)CC1,"3.16 µM [rising, single point]",–
COc1cccc(NC(=O)Cn2c3ccc(F)cc3c3nc4n(c(=O)c32)CCS4)c1,"12.6 µM [falling, partial curve]",–
COCCn1c(SCC(=O)Nc2ncc(C)s2)nc2sc3c(c2c1=O)CCC3,"16.4 µM [falling, partial curve]","14.6 µM [rising, partial curve, poor fit]"
Clc1ccc(CSCCc2ccncc2)cc1,"0.00411 µM [rising, full curve, poor fit]",–
O=C(CSc1ncnc2sc3c(c12)CCC3)N1CCOCC1,"10 µM [rising, partial curve, poor fit]",–
O=[N+]([O-])c1cc(S(=O)(=O)Nc2cccc(C(F)(F)F)c2)ccc1-n1nnc2ccccc21,"18.4 µM [falling, partial curve, poor fit]",–
O=C1c2cccc3c(N4CCCCC4)ccc(c23)C(=O)N1c1ccc(O)cc1,"0.251 µM [rising, full curve, poor fit]",–
COc1ccc(C(CC(=O)Nc2cc(OC)cc(OC)c2)n2cccc2)cc1 (stereo not drawn),"20.6 µM [falling, single point]",–
O=C(NC1CCCCCC1)c1ccc(N2CCCC2=O)cc1,"11.2 µM [falling, partial curve]",–
COc1cccc2c1OC1(C)CC2/C(=C(\C)O)C(=O)N1 (stereo not drawn),"35.5 µM [falling, partial curve, poor fit]",–
O=C(Nc1ccc2ccccc2c1)c1ccccc1F,"35.5 µM [falling, single point]",–
O=C(CN1C(=O)S/C(=C/c2ccncc2)C1=O)Nc1ccccc1,"11.2 µM [falling, partial curve]",–
CC(C)c1cc(C(F)(F)F)n2nc(C(=O)O)cc2n1,"32.6 µM [rising, single point]",–
C1=C(c2cc3ccccc3cn2)CCCC1,"0.731 µM [rising, full curve]",–
Cc1ccc(S(=O)(=O)NCCN2CCOCC2)c(C)c1C,"12.6 µM [rising, partial curve]",–
Cc1cccc(/C=N/Nc2ccc3ccccc3n2)c1,"11.2 µM [falling, partial curve]",–
CN(C(=O)CC(NC(=O)c1ccccc1)(c1ccccc1)c1ccccc1)c1ccccc1,"22.4 µM [falling, single point]",–
Cc1ccc(OCC(=O)NCCC2=CCCCC2)cc1,"9.2 µM [rising, partial curve, poor fit]",–
Cc1c(C(=O)N2CCCCC2C)sc2ncnc(N3CCc4ccccc4C3)c12 (stereo not drawn),"11.2 µM [falling, partial curve, poor fit]",–
CCCCn1c(N)c(N(CC(C)C)C(=O)CN2C(=O)C3CCCCC3C2=O)c(=O)[nH]c1=O (stereo not drawn),"23.1 µM [falling, single point]",–
COc1ccc(/C=C/C(=O)c2ccc(NC(=O)c3cccs3)cc2)cc1OC,"16.4 µM [falling, single point]",–

Compound,AC50 [1],AC50 [2]
Cc1ccc(S(=O)(=O)Nc2ccc(-n3c(C)nc4ccccc4c3=O)cc2)cc1,"6.51 µM [rising, single point]","7.31 µM [falling, partial curve, poor fit]"
CCOC(=O)c1c(C)[nH]c(C(=O)OCCOc2ccccc2C)c1C,"6.51 µM [rising, partial curve]",–
CCC(C)C(=O)Nc1cc(C(=O)OC)ccc1C(=O)OC (stereo not drawn),"7.31 µM [falling, partial curve, poor fit]",–
COc1cccc(-n2nc(C#N)c(Cl)cc2=O)c1,"3.55 µM [falling, partial curve, poor fit]","14.1 µM [rising, partial curve, poor fit]"
CCOC1Cc2ccccc2N(C(N)=O)c2ccccc21 (stereo not drawn),"4.11 µM [falling, single point]",–
Cc1ccc(NC(=O)CN(C)C(=O)CSc2nnc(NC(C)C)s2)cc1,"29.1 µM [falling, single point]",–
N#Cc1c(SCc2cccc(Cl)c2)sc(C(=O)c2ccccc2)c1N,"0.92 µM [rising, full curve, poor fit]",–
CCOc1ccc2c(c1)-c1c(ssc1=S)C(C)(C)N2C(=O)CSC1=NCCS1,"29.1 µM [falling, single point]",–
CC(C)[C@H](NS(=O)(=O)c1ccccc1)C(=O)OCC(=O)N1N=C(c2ccc(Cl)cc2)CC1c1ccco1 (stereo partly drawn),"23.1 µM [rising, partial curve, poor fit]",–
Nc1ccccc1C(=O)/C=C/c1ccc2c(c1)OCO2,"20.6 µM [falling, single point]",–
O=C(Nc1ccc(F)c(F)c1)c1ccc2c(c1)OCO2,"10 µM [falling, partial curve]",–
Fc1ccc(-n2ncc3c(NCCCN4CCOCC4)ncnc32)cc1,"4.47 µM [falling, partial curve, poor fit]",–
COc1ccc(N2CCN(C(=O)c3cccc(N4C(=O)C5CC=CC(C)C5C4=O)c3)CC2)cc1 (stereo not drawn),"20 µM [falling, partial curve, poor fit]",–
Cc1ccc(C(=O)Nc2ccc(S(=O)(=O)N3CCOCC3)cc2)cc1C,"3.55 µM [rising, single point]",–
Cc1nn2c(c1-c1ccccc1)N=C(c1ccco1)CC2c1ccccc1 (stereo not drawn),"8.2 µM [falling, partial curve]",–
Cc1c(Cl)cccc1NC(=S)NN1CCOCC1,"20.6 µM [falling, single point]",–
C1=C2C[N+]3(CCCC3)CC2Cc2ccc3ccccc3c21 (stereo not drawn),"0.517 µM [falling, partial curve, poor fit]",–
O=C(N/N=C/c1c(Cl)nc2ccccn2c1=O)c1cccnc1,"3.55 µM [falling, partial curve]","12.6 µM [rising, partial curve, poor fit]"
Cc1cc(C(=O)CN2C(=O)c3ccccc3C2=O)c(C)n1Cc1cccs1,"2.91 µM [rising, partial curve]",–
Fc1ccc(NC(=S)Nc2cc(-c3ccccc3)[nH]n2)cc1Cl,"17.8 µM [falling, single point]",–
O=C(CCCOc1ccccc1)NC(=S)Nc1ccccc1,"1 µM [falling, full curve, poor fit]",–
CCOC(=O)c1nc2ccccc2s1,"0.501 µM [rising, full curve, poor fit]",–

Compound,AC50 [1],AC50 [2]
O=C(c1ccccc1)n1ccc(-c2cnc(-c3ccccc3)s2)n1,"7.31 µM [falling, partial curve, poor fit]",–
CC(NCc1ccc([N+](=O)[O-])cc1)C1COc2ccccc2O1 (stereo not drawn),"12.6 µM [rising, single point]",–
Cc1cc(C)nc(SCC(=O)N/N=C\C(Br)=C\c2ccccc2)n1,"13 µM [rising, single point]",–
CC(=O)NCCc1nc2ccccc2n1CCOc1cccc(C)c1,"2.82 µM [rising, partial curve]",–
O=C(c1cc(COc2c(F)cccc2F)on1)N1CCSCC1,"1 µM [rising, partial curve]",–
O=c1oc(CCCO)cc2ccc(C#Cc3ccsc3)cc12,"1.84 µM [rising, partial curve]",–
CN1/C(=C\C=N\NC(=O)c2cccnc2)C(C)(C)c2ccccc21,"35.5 µM [falling, single point]",–
COc1c(Br)cc(Br)cc1C(=O)O,"5.8 µM [falling, partial curve, poor fit]",–
CCc1ccc(OC(C)C(=O)Nc2ccc(S(=O)(=O)Nc3nccs3)cc2)cc1 (stereo not drawn),"3.98 µM [falling, full curve, poor fit]",–
Cc1ccc(S(=O)(=O)c2c(N)n(NC(=O)c3ccccc3C)c3nc4ccccc4nc23)cc1,"20.6 µM [falling, partial curve, poor fit]",–
c1cnc(SCCCOc2ccc3ccccc3c2)nc1,"1.3 µM [rising, full curve]",–
C=CCNCCCCOc1ccccc1-c1ccccc1,"16.4 µM [falling, partial curve]",–
Cn1c(=O)c2c(nc(CN3CCC(C(N)=O)CC3)n2Cc2ccccc2F)n(C)c1=O,"7.08 µM [rising, full curve]",–
O=S(=O)(c1ccccc1C(F)(F)F)N1CCN(CC(O)COc2ccccc2F)CC1 (stereo not drawn),"6.31 µM [rising, single point]",–
CC(=O)N1CCN(C(=O)CCc2nnc(CCCCc3ccccc3)o2)CC1,"7.08 µM [falling, partial curve, poor fit]",–
CN(c1ccccc1)S(=O)(=O)c1cccc(NC(=O)c2ccc(Cl)c([N+](=O)[O-])c2)c1,"32.6 µM [rising, partial curve, poor fit]",–
C/C(Cc1ccccc1)=N\NC(=O)c1ccc(F)cc1,"16.4 µM [falling, partial curve]",–
O=C(N1CCOCC1)N1CCCN(C(=O)N2CCOCC2)CC1,"0.0651 µM [rising, full curve, poor fit]",–
Cc1ccc(CNC(=O)CSCc2cccc(F)c2)cc1,"1 µM [rising, partial curve]",–
CC(C)Cn1cnc2c1c(=O)n(CC(O)c1ccccc1)c(=O)n2CC(C)C (stereo not drawn),–,"0.651 µM [rising, full curve]"

# Taken from above.
# Under AC50 [1], Cc1cc(C)nc(SCC(=O)N/N=C\C(Br)=C\c2ccccc2)n1 is entered as 13 µM [rising, single point]
# Under AC50 [1], O=C(c1cc(COc2c(F)cccc2F)on1)N1CCSCC1 is entered as 1 µM [rising, partial curve]
# Under AC50 [1], O=C(N1CCOCC1)N1CCCN(C(=O)N2CCOCC2)CC1 is entered as 0.0651 µM [rising, full curve, poor fit]
